# Experimental data reported in the supplement of paper PMC10849652.
# Sequences of proteins named here, by UniProt entry; tags and fusion partners are left off. A change or cut given only in a name is not applied to a line headed by its entry.
# UniProt Q93009, whole entry, looked up: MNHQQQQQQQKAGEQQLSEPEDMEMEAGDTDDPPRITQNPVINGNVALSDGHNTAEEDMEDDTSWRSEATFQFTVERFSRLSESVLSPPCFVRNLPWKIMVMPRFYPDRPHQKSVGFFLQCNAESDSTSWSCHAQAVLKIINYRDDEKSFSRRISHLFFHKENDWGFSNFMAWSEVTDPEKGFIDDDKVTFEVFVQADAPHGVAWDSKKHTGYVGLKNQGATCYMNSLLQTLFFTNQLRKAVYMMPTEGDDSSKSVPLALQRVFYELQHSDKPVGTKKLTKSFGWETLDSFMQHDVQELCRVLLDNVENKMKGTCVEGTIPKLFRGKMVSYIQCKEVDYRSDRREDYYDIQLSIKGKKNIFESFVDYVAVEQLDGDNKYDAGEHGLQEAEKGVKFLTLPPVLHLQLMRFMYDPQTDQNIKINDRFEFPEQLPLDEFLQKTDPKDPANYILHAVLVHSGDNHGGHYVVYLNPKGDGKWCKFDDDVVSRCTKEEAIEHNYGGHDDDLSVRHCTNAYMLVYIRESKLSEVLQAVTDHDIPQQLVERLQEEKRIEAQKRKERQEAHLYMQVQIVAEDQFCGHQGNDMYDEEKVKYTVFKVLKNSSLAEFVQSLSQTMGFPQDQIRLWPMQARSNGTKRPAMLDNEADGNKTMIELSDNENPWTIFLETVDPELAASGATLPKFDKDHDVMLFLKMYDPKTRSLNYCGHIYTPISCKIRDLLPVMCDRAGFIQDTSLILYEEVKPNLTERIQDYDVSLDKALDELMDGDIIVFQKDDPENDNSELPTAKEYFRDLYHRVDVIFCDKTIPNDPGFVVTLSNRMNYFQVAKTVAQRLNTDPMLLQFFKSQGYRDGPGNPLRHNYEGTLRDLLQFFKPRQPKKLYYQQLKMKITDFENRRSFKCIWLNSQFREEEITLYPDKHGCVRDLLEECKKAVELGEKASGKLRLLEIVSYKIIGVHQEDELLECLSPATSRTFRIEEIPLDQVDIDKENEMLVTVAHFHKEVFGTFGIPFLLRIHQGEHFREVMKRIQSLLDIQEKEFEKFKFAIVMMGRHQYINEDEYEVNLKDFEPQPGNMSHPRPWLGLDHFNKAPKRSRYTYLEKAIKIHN
# UniProt Q92995: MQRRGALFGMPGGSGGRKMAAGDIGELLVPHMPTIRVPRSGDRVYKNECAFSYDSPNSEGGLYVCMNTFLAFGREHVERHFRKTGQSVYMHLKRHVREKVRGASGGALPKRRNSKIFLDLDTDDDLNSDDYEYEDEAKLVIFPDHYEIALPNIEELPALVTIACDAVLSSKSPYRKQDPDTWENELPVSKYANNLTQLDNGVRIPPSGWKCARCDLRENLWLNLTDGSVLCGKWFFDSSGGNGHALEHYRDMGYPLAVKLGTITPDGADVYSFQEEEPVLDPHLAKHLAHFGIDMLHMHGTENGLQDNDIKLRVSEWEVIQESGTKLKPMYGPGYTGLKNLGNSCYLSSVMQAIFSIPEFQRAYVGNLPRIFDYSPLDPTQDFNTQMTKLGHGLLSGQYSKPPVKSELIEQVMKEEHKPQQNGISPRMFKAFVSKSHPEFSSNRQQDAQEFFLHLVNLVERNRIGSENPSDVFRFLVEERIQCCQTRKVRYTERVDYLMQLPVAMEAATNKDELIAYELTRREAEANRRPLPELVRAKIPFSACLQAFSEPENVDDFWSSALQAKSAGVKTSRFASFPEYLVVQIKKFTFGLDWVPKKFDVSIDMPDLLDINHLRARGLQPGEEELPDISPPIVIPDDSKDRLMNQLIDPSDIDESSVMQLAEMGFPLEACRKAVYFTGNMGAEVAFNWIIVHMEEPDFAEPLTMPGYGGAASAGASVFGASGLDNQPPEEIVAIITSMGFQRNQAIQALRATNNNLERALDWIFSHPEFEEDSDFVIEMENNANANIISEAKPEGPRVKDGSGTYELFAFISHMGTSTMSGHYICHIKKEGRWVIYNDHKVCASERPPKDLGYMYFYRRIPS
# UniProt O94966: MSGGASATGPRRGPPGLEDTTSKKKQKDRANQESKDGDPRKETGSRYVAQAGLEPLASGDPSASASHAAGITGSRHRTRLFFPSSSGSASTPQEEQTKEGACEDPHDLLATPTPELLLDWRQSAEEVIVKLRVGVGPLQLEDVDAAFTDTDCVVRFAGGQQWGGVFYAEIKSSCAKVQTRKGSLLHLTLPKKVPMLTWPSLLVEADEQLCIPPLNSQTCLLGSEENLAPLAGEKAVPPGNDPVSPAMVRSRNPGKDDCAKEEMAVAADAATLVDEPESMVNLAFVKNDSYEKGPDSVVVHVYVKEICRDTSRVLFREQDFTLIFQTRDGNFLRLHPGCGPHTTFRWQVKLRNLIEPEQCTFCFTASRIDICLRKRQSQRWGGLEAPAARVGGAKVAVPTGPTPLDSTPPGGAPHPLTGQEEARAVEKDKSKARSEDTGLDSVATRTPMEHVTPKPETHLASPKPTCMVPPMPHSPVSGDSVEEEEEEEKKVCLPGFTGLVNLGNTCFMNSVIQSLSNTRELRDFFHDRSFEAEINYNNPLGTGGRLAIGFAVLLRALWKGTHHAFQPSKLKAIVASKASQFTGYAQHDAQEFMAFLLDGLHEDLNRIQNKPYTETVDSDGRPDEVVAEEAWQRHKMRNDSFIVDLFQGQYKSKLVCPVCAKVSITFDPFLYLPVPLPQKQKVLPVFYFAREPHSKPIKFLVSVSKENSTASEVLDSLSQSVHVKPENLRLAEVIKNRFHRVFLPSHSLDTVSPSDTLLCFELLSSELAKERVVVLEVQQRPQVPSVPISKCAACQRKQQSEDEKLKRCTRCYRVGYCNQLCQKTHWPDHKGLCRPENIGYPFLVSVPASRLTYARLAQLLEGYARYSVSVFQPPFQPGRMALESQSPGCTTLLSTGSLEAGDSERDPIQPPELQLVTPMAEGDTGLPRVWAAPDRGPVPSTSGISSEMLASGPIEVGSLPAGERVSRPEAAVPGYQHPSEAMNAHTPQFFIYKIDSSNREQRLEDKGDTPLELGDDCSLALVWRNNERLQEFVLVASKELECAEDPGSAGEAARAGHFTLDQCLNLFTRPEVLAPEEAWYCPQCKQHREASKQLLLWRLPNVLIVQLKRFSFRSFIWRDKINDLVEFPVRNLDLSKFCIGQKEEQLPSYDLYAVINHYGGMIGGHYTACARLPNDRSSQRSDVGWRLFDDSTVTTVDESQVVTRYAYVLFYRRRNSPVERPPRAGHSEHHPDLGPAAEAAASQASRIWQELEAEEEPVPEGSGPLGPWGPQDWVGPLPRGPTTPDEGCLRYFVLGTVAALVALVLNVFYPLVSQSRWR
# UniProt O14949: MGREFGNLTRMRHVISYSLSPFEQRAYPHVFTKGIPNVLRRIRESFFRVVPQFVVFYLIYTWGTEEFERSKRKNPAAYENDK
# UniProt Q96BW1: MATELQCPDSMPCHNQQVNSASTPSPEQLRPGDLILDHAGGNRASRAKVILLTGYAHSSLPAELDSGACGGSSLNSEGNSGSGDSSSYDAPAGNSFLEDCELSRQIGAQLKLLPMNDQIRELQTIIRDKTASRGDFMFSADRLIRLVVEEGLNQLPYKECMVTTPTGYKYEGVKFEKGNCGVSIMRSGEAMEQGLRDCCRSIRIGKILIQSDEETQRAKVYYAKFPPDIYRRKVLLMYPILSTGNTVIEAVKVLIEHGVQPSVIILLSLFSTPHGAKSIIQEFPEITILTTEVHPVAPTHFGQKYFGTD
# UniProt Q86UV5: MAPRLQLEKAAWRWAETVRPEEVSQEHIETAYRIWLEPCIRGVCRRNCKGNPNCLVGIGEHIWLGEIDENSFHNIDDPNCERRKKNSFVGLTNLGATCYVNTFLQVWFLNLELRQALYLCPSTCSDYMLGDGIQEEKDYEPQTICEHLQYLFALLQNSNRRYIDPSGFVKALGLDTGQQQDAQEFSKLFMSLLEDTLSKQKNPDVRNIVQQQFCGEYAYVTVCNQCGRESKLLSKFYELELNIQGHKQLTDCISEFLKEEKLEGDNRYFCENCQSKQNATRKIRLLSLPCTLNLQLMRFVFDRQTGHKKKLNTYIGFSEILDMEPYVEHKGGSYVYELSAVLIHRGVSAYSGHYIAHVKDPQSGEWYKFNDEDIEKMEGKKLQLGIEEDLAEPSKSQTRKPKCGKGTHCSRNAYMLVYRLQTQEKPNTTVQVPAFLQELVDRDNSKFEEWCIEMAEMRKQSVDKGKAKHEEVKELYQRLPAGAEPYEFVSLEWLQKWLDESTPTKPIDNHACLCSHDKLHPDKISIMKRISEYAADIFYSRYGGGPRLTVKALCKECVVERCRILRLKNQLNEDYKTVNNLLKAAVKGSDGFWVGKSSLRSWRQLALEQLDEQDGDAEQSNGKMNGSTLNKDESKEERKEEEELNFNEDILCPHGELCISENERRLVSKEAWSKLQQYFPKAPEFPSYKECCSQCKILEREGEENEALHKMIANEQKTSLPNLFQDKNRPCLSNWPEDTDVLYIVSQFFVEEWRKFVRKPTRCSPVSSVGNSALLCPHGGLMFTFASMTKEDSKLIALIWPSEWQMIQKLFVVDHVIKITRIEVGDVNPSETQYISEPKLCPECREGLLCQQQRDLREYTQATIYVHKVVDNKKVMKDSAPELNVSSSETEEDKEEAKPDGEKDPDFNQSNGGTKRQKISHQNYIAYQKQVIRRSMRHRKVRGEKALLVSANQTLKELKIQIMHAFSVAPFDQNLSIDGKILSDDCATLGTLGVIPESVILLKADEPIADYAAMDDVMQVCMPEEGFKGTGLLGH
# UniProt P63027, whole entry, looked up: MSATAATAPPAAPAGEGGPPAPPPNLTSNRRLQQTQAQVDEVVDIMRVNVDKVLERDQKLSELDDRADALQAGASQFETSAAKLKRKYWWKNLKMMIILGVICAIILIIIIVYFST
# UniProt P26640: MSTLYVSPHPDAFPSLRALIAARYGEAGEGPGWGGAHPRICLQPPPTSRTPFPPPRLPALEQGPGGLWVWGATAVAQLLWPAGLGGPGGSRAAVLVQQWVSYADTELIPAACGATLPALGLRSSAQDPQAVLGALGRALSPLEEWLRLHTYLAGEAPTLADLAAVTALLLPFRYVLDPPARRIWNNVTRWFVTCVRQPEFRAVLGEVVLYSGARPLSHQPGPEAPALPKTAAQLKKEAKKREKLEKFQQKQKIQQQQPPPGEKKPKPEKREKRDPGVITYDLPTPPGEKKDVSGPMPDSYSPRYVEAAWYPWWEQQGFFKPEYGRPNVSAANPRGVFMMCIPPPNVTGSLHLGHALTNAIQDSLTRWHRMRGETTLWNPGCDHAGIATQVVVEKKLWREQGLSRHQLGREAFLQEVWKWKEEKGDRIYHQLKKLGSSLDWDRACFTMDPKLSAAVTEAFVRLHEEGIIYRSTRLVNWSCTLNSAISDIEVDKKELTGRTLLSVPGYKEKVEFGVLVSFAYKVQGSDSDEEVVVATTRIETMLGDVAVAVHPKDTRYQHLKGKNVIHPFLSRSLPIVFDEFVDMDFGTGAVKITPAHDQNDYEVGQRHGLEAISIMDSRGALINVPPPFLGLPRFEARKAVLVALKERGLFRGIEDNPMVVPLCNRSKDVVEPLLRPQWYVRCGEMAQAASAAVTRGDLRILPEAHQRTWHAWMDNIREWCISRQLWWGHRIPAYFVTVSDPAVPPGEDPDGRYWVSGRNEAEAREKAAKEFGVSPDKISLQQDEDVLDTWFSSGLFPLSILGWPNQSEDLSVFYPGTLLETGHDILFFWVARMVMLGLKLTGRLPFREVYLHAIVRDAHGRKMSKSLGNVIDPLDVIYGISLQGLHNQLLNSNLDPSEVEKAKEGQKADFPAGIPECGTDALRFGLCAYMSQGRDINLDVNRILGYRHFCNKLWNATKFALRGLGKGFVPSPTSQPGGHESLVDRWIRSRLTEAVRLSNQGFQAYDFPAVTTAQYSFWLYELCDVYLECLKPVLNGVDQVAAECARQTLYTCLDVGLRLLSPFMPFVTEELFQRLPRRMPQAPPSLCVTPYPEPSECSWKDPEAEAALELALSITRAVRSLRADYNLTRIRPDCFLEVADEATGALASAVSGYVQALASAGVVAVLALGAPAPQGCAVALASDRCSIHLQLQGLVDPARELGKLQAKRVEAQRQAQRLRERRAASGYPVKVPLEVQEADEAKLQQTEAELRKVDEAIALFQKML
# UniProt P47985: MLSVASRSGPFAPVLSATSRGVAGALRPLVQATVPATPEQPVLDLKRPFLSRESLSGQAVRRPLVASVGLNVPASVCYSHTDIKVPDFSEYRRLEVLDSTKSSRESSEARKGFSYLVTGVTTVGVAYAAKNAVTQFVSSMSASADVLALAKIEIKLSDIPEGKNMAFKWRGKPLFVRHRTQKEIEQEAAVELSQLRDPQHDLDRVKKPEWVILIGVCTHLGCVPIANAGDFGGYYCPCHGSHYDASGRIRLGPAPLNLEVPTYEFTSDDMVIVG
# The list shows a part of the results.
# Legend:
# Test in all cases: log2 fold change, soluble protein after heating vs DMSO (PISA); higher = thermal stabilisation; K562 lysate, 10 uM; active = over 0.2 and 3.5 SD of the protein, either way, in both replicates (recomputed)
# nilotinib = compound: Cc1cn(-c2cc(NC(=O)c3ccc(C)c(Nc4nccc(-c5cccnc5)n4)c3)cc(C(F)(F)F)c2)cn1 [nilotinib]
# Outline: (§1)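 A 30 min treatment with 10 μM compound was applied to crude K562 extract at 1 mg/mL protein in PBS pH 7.4 with 1 mM MgCl2. Heating for 3 min spanned 48°C-58°C, after which aliquots were pooled, adjusted to 0.5% NP-40 at 4°C and spun at 21,000xg for 90 min. TMTpro 16plex LC-MS/MS of the supernatant, with channel sums equalised, gave values recorded as log-two fold change in thermal stability against solvent controls, from duplicates.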
# [1] = compound: Cc1nc(Nc2n[nH]c3c2CN(C(=O)N[C@H](CN(C)C)c2ccccc2)C3(C)C)c2sccc2n1
# Outline: as §1
# dasatinib = compound: Cc1nc(Nc2ncc(C(=O)Nc3c(C)cccc3Cl)s2)cc(N2CCN(CCO)CC2)n1 [dasatinib]
# Outline: as §1
# [2] = compound: Cc1ncc(-c2ccnc(Nc3ccc(S(C)(=O)=O)cc3)n2)n1C(C)C
# Outline: as §1
# [3] = compound: Cn1cc(-c2ccc3c(c2)CCN3C(=O)Cc2cccc(C(F)(F)F)c2)c2c(N)ncnc21
# Outline: as §1
# quisinostat = compound: Cn1cc(CNCC2CCN(c3ncc(C(=O)NO)cn3)CC2)c2ccccc21 [quisinostat]
# Outline: as §1
# tipifarnib = compound: Cn1cncc1[C@@](N)(c1ccc(Cl)cc1)c1ccc2c(c1)c(-c1cccc(Cl)c1)cc(=O)n2C [tipifarnib]
# Outline: as §1
# [4] = compound: NC(=O)Nc1cc(-c2cccc(F)c2)sc1C(=O)N[C@H]1CCCNC1
# Outline: as §1
# [5] = compound: NC(=O)c1cnc(N[C@@H]2CCCC[C@@H]2N)nc1Nc1cccc(-n2nccn2)c1
# Outline: as §1
# [6] = compound: NC1(c2ccc(-c3nc4ccn5c(=O)[nH]nc5c4cc3-c3ccccc3)cc2)CCC1
# Outline: as §1
Target,log2 fold change (nilotinib),log2 fold change [1],log2 fold change (dasatinib),log2 fold change [2],log2 fold change [3],log2 fold change (quisinostat),log2 fold change (tipifarnib),log2 fold change [4],log2 fold change [5],log2 fold change [6]
USP7 (UniProt Q93009),inactive: 0.002,inactive: -0.002,inactive: -0.038,inactive: -0.018,inactive: 0.019,inactive: -0.012,inactive: 0.001,inactive: 0.03,inactive: 0.007,inactive: -0.016
USP47 isoform 4 (UniProt Q96K76),inactive: -0.006,inactive: -0.021,inactive: 0.006,inactive: -0.009,inactive: 0.01,inactive: -0.026,inactive: 0.016,inactive: 0.023,inactive: -0.006,inactive: 0.001
USP13 (UniProt Q92995),inactive: 0.017,inactive: 0.051,inactive: 0.023,inactive: 0.054,inactive: -0.01,inactive: 0.017,inactive: 0.056,inactive: -0.027,inactive: -0.095,inactive: -0.011
USP19 isoform 6 (UniProt O94966),inactive: 0.014,inactive: 0.01,inactive: 0,inactive: -0.007,inactive: 0.009,inactive: -0.001,inactive: 0.033,inactive: 0.006,inactive: 0.006,inactive: 0.002
UHRF1 isoform 2 (UniProt Q96T88),inactive: -0.036,inactive: -0.063,inactive: -0.045,inactive: -0.003,inactive: 0.073,inactive: -0.009,inactive: 0.038,inactive: -0.022,inactive: 0.044,inactive: -0.018
VIM (UniProt P08670),inactive: -0.004,inactive: -0.012,inactive: -0.023,inactive: 0.018,inactive: -0.012,inactive: 0.024,inactive: -0.042,inactive: 0.004,inactive: -0.009,inactive: 0.023
UQCRQ (UniProt O14949),inactive: 0.038,inactive: 0,inactive: 0.017,inactive: -0.014,inactive: -0.018,inactive: -0.004,inactive: -0.008,inactive: 0.008,inactive: -0.021,inactive: 0.013
USP9X (UniProt Q93008),inactive: -0.01,inactive: 0,inactive: -0.045,inactive: 0.002,inactive: 0,inactive: -0.017,inactive: -0.024,inactive: 0.03,inactive: 0.02,inactive: -0.003
UPRT (UniProt Q96BW1),inactive: 0.052,inactive: 0.171,inactive: -0.041,inactive: 0.024,inactive: -0.058,inactive: -0.018,inactive: 0.028,inactive: 0,inactive: 0.061,inactive: -0.033
VIPAS39 (UniProt Q9H9C1),inactive: 0.069,inactive: -0.06,inactive: -0.081,inactive: 0.017,inactive: -0.063,inactive: -0.052,inactive: -0.106,inactive: 0.016,inactive: 0.045,inactive: -0.061
USO1 isoform 2 (UniProt O60763),inactive: -0.013,inactive: 0.021,inactive: 0.007,inactive: -0.007,inactive: -0.004,inactive: -0.03,inactive: -0.023,inactive: -0.007,inactive: 0.002,inactive: -0.007
UTP18 (UniProt Q9Y5J1),inactive: 0.059,inactive: -0.009,inactive: 0.005,inactive: -0.179,inactive: -0.03,inactive: -0.034,inactive: -0.002,inactive: 0.058,inactive: -0.016,inactive: 0.074
UGDH (UniProt O60701),inactive: 0.008,inactive: -0.012,active: 0.217,inactive: 0.009,inactive: -0.034,inactive: 0.019,inactive: 0.007,inactive: 0.039,inactive: -0.01,inactive: 0.006
VEZF1 (UniProt Q14119),inactive: 0.018,inactive: -0.124,inactive: 0.033,inactive: -0.027,inactive: 0.039,inactive: -0.346,inactive: -0.043,inactive: 0.009,inactive: 0.012,inactive: 0.102
VCP (UniProt P55072),inactive: 0.01,inactive: 0.001,inactive: 0.018,inactive: 0.009,inactive: -0.028,inactive: 0.014,inactive: 0.014,inactive: -0.023,inactive: -0.017,inactive: 0.002
UROS (UniProt P10746),inactive: -0.022,inactive: 0.033,inactive: 0.005,inactive: 0.01,inactive: 0.036,inactive: 0.061,inactive: 0.051,inactive: 0.001,inactive: 0.003,inactive: -0.016
USP15 (UniProt Q9Y4E8),inactive: -0.012,inactive: 0.001,inactive: 0.001,inactive: -0.004,inactive: 0.002,inactive: 0.033,inactive: -0.002,inactive: 0.021,inactive: -0.001,inactive: 0.009
USP48 isoform 8 (UniProt Q86UV5),inactive: 0.018,inactive: 0.008,inactive: 0.001,inactive: 0,inactive: 0.015,inactive: -0.04,inactive: -0.011,inactive: 0.008,inactive: -0.001,inactive: -0.024
VAC14 (UniProt Q08AM6),inactive: -0.014,inactive: 0.018,inactive: -0.022,inactive: 0.009,inactive: 0.058,inactive: -0.07,inactive: -0.059,inactive: 0.012,inactive: -0.002,inactive: -0.027
VIRMA (UniProt Q69YN4),inactive: -0.004,inactive: 0.021,inactive: -0.008,inactive: -0.096,inactive: -0.018,inactive: -0.034,inactive: -0.005,inactive: -0.004,inactive: 0.067,inactive: -0.002
ULBP1 (UniProt Q9BZM6),inactive: -0.037,inactive: -0.018,inactive: 0.027,inactive: 0.052,inactive: 0.038,inactive: -0.089,inactive: 0.103,inactive: 0.004,inactive: -0.106,inactive: -0.015
VAMP2 (UniProt P63027),inactive: -0.034,inactive: 0.034,inactive: 0.002,inactive: 0.066,inactive: -0.009,inactive: 0.262,inactive: 0.041,inactive: -0.027,inactive: 0.019,inactive: 0.067
UNC45A (UniProt Q9H3U1),inactive: -0.007,inactive: 0.003,inactive: -0.051,inactive: 0.018,inactive: 0.016,inactive: -0.047,inactive: -0.015,inactive: 0.03,inactive: 0.016,inactive: -0.001
USP39 (UniProt Q53GS9),inactive: 0.012,inactive: 0.001,inactive: 0.004,inactive: -0.011,inactive: -0.024,inactive: -0.011,inactive: -0.016,inactive: 0.019,inactive: 0.005,inactive: 0.004
VCL (UniProt P18206),inactive: 0.005,inactive: 0.005,inactive: 0.008,inactive: 0.003,inactive: -0.003,inactive: -0.01,inactive: 0.011,inactive: -0.021,inactive: -0.002,inactive: -0.001
VARS (UniProt P26640),inactive: -0.012,inactive: -0.004,inactive: -0.072,inactive: 0,inactive: 0.06,inactive: -0.021,inactive: 0.012,inactive: 0.045,inactive: 0.001,inactive: -0.028
VAT1 (UniProt Q99536),inactive: 0.041,inactive: 0.017,inactive: 0.032,inactive: 0.024,inactive: -0.027,inactive: 0.012,inactive: 0.013,inactive: -0.019,inactive: -0.037,inactive: 0.007
UQCRFS1 (UniProt P47985),inactive: 0.016,inactive: -0.026,inactive: 0.055,inactive: 0.037,inactive: 0.015,inactive: 0.071,inactive: 0.009,inactive: -0.034,inactive: -0.03,inactive: 0.007
UNC13B isoform 2 (UniProt O14795),inactive: 0.053,inactive: 0.088,inactive: -0.089,inactive: -0.109,inactive: 0.102,inactive: -0.033,inactive: 0.152,inactive: 0.011,inactive: -0.068,inactive: 0.021

# Reformatted tab-delimited: entries from further up.
Target	log2 fold change (nilotinib)	log2 fold change [1]	log2 fold change (dasatinib)	log2 fold change [2]	log2 fold change [3]	log2 fold change (quisinostat)	log2 fold change (tipifarnib)	log2 fold change [4]	log2 fold change [5]	log2 fold change [6]
ULBP1 (UniProt Q9BZM6)	inactive: -0.037	inactive: -0.018	inactive: 0.027	inactive: 0.052	inactive: 0.038	inactive: -0.089	inactive: 0.103	inactive: 0.004	inactive: -0.106	inactive: -0.015
VAMP2 (UniProt P63027)	inactive: -0.034	inactive: 0.034	inactive: 0.002	inactive: 0.066	inactive: -0.009	inactive: 0.262	inactive: 0.041	inactive: -0.027	inactive: 0.019	inactive: 0.067
